Measurements from the supplement of paper PMC12823440, “Inhibitors supercharge kinase turnover through native proteolytic circuits” (Nature, 2025).
Where a name gives a salt, the structure may show the parent alone. The list shows a part of the results. The calls rarely recur for the same compound in another form.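 Kinases, fused to nanoluciferase, were expressed in K562 cells; luminescence was measured every 4 h from 2 to 18 h as percent of control (DMSO = 100%, positive control = 0%). A time point is decreased if signal falls significantly (2 sigma). Hits were called by the authors by a rule that is not shown; the count of time points alone does not decide it.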

Amino acid sequences for entries named in this document (tags omitted). A change or cut given only in a name is not applied to a line headed by its entry.
UniProt Q13546: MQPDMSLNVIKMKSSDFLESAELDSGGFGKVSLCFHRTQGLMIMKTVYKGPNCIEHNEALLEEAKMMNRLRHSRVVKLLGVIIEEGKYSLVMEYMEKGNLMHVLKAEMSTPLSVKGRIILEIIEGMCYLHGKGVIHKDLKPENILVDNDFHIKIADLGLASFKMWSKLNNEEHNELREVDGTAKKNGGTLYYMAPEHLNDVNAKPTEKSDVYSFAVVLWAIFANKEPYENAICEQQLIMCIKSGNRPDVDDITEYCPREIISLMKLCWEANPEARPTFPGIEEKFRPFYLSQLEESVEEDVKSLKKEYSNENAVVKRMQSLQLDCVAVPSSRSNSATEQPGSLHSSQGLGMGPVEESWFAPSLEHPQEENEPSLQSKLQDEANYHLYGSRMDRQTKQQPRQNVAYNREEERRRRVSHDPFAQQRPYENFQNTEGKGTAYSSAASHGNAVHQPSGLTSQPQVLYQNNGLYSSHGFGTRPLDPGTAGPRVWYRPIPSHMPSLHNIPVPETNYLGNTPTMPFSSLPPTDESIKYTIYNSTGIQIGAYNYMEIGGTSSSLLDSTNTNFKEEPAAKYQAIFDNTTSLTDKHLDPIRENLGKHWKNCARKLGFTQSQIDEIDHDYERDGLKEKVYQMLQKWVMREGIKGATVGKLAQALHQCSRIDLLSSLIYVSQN

These compounds were tested against RIPK1 (UniProt Q13546) (assay: kinase-Nluc reporter destabilization hit call (1 = scored as downregulated) (binary); higher = compound decreases kinase abundance). Conditions: K562; 2-18 h.

kinase-Nluc reporter destabilization hit call, inactive:
Cc1cc(C)nc(NS(=O)(=O)c2ccc(NC(=S)NC(=O)COc3ccc(Br)cc3Cl)cc2)n1 (2.5 µM) 0, Oc1ccc(/C=C/c2cc(O)cc(O)c2)cc1 [Resveratrol] (10 µM) 0, COc1ccc(S(=O)(=O)NCc2ccc(C(=O)NCCc3ccc(Cl)cn3)cc2)cc1 (10 µM) 0, O=c1[nH]c(C2CCCN2)nc2c1oc1ccc(Cl)cc12 (stereo not drawn) [XL413 (hydrochloride)] (10 µM) 0, O=C(NC1CCOCC1)c1ccc(-c2cc(-c3c[nH]nc3-c3ccccn3)ccn2)cc1 (10 µM) 0, N#Cc1c2nc3ccccc3nc2n2ccc(NC(=O)c3cccs3)cc12 (10 µM) 0, COCCNc1cc(NC(=O)N2CCCc3cc(CN4CCN(C)CC4=O)c(C=O)nc32)ncc1C#N [Roblitinib] (10 µM) 0, CN(C)CCC=C1c2ccccc2CCc2ccccc21 [Amitriptyline (hydrochloride)] (2.5 µM) 0, Cn1cc(C2=C(c3cn(CCCSC(=N)N)c4ccccc34)C(=O)NC2=O)c2ccccc21 [Ro 31-8220 (mesylate)] (2.5 µM) 0, CC(C)(C)n1nc(Cc2ccccc2O)c2c(N)ncnc21 (10 µM) 0, COc1cc2ncnc(Nc3ccc(F)c(Cl)c3)c2cc1NC(=O)/C=C/CN1CCCCC1 [Dacomitinib] (10 µM) 0, C[C@@H]1COCCN1c1nc(-c2cnc(N)cc2C(F)F)nc(N2[C@H](C)COC[C@@H]2C)n1 (2.5 µM) 0, COc1cc2ncnc(Nc3ccccc3)c2cc1OC (10 µM) 0, O=C(Nc1nc2ccccc2[nH]1)c1cccc([N+](=O)[O-])c1 [IRAK-4 protein kinase inhibitor 2] (10 µM) 0, Cc1ccc(Oc2nc3cc(-c4ccc(-c5ccccc5)cc4)c(Cl)cc3[nH]2)cc1C(=O)O (10 µM) 0, c1ccc(-c2nc3c(c(-n4ccc5cnccc54)n2)CCC3)nc1 (10 µM) 0, Cn1ncc2cc(-c3cnc(N)c(Cl)c3N3CCC4(CCNC4=O)CC3)ccc21 (10 µM) 0, C[C@H](Nc1ncnc2nc[nH]c12)c1cc2cccc(Cl)c2c(=O)n1-c1ccccc1 [Duvelisib] (10 µM) 0, CS(=O)(=O)c1ccc(-c2cnc(N)c(-c3ccc(C(F)(F)F)nc3)c2)cc1 (10 µM) 0, c1cc(NC2CCNCC2)nc(-c2cnc3ccccn23)c1 [IRAK inhibitor 1] (10 µM) 0, C[C@@H]1CCNC(=O)c2cc3ccc(C(=O)Nc4nc5ccccc5n4CCCN(C)C)cc3n21 (10 µM) 0, Cc1cnc(NC2CCOCC2)nc1-n1cnc(C(=O)N[C@H](CN)c2cc(F)cc(Cl)c2)c1 (10 µM) 0, O=C(NCc1cccc(O)c1)Nc1nc(-c2ccncc2)cs1 (10 µM) 0, Cc1cc2sc(NC(=O)Cc3ccccc3)nc2cc1Cl (10 µM) 0, COc1cc2ncnc(-n3nc(-c4ccccn4)nc3N)c2cc1OC (10 µM) 0, O=C(N[C@@H](C1CC1)C(F)(F)F)c1cc(-c2cnn3cc(-c4ccc(F)cc4)cnc23)cs1 (10 µM) 0, O=C1/C(=C\c2ccc(Cl)cc2)C=C(c2ccccc2)N1c1ccc(O)cc1 (2.5 µM) 0, CNC(=O)c1ccccc1Nc1nc(Nc2ccc3c(c2OC)CCC[C@H](N2CCN(CCO)CC2)C3)ncc1Cl (10 µM) 0, C=CC(=O)Nc1cccc(CNc2nc(Nc3ccc(N4CCN(C)CC4)cc3OC)ncc2Cl)c1 (10 µM) 0, CC(C)=CCc1c(-c2ccc(O)cc2O)oc2c3c(cc(O)c2c1=O)OC(C)(C)C=C3 [Morusin] (2.5 µM) 0, CN1CCC(c2ccccc2CC(C)(C)Nc2nc(N3CCOCC3)nc(-n3c(C(F)F)nc4ccccc43)n2)CC1 [Zandelisib] (10 µM) 0, CC(C)(O)[C@H]1CC[C@H](Nc2ccc3ncc(-c4cccc(C(F)(F)F)c4)n3n2)CC1 (10 µM) 0, CC(C)c1cc(/C=C(\C#N)C(=O)NCCCc2ccccc2)cc(C(C)C)c1O (10 µM) 0
